PubChem BioAssay AID504808 – Drosophila RNAi Screening Center – 2011
Test: 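Fly genes required to hold E2F transcription in check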 (primary screen). Cell system: Drosophila S2 cells. Reagent: long dsRNA against Drosophila genes. Measured: 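Dual luciferase plate measurements; E2F-specific signal taken as firefly over Renilla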. Scale: E2F firefly: higher = more E2F reporter activity; Renilla normaliser: higher = more normaliser reporter signal. Active means: 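Called active if the normalised E2F reporter went up by over 50%; the cutoff is arbitrary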.
The deposit covers about 21,000 reagents; shown is a random part of those with a known target gene and a result. Of all reagents, 18 (0.084%) got an active call. 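Raw counts without plate normalisation, one of two replicates; the ratio scores behind the calls were not deposited.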 Reagents against one gene are numbered here. A plus sign joins genes that one reagent is predicted to hit. Not given: the amount of reagent, the time to read-out.

CG9410 + CG15908 #1 — E2F firefly, rep 1 = 1.01e5; Renilla normaliser, rep 1 = 3959; call = inactive
CG9410 + CG15908 #2 — E2F firefly, rep 1 = 1.07e5; Renilla normaliser, rep 1 = 3833; call = inactive
Clc (GeneID 40221) — E2F firefly, rep 1 = 74927; Renilla normaliser, rep 1 = 3589; call = inactive
CG6927 (GeneID 31419) — E2F firefly, rep 1 = 7835; Renilla normaliser, rep 1 = 808; call = inactive
aurA (GeneID 41446) — E2F firefly, rep 1 = 1.40e5; Renilla normaliser, rep 1 = 5266; call = inactive
Vajk2 (GeneID 34811) — E2F firefly, rep 1 = 97999; Renilla normaliser, rep 1 = 4272; call = inactive
FIG4 (GeneID 33658) — E2F firefly, rep 1 = 1.02e5; Renilla normaliser, rep 1 = 3946; call = inactive
CG8159 (GeneID 41040) — E2F firefly, rep 1 = 1.38e5; Renilla normaliser, rep 1 = 6685; call = inactive
CG34288 (GeneID 5740644) — E2F firefly, rep 1 = 91615; Renilla normaliser, rep 1 = 2729; call = inactive
CG17264 (GeneID 33511) — E2F firefly, rep 1 = 73456; Renilla normaliser, rep 1 = 3229; call = inactive
alpha-Man-Ia (GeneID 31957) #1 — E2F firefly, rep 1 = 64865; Renilla normaliser, rep 1 = 2243; call = inactive
alpha-Man-Ia (GeneID 31957) #2 — E2F firefly, rep 1 = 1.33e5; Renilla normaliser, rep 1 = 6025; call = inactive
alpha-Man-Ia (GeneID 31957) #3 — E2F firefly, rep 1 = 1.28e5; Renilla normaliser, rep 1 = 4957; call = inactive
alpha-Man-Ia (GeneID 31957) #4 — E2F firefly, rep 1 = 1.06e5; Renilla normaliser, rep 1 = 5922; call = inactive
ago (GeneID 38516) — E2F firefly, rep 1 = 57295; Renilla normaliser, rep 1 = 3137; call = inactive
aay (GeneID 39085) — E2F firefly, rep 1 = 70189; Renilla normaliser, rep 1 = 3339; call = inactive

Laid out differently: results already given.
| gene | dsRNA no. | E2F firefly, rep 1 | Renilla normaliser, rep 1 | call |
| --- | --- | --- | --- | --- |
| CG9410 + CG15908 | 2 | 1.07e5 | 3833 | inactive |
| Clc (GeneID 40221) | 1 | 74927 | 3589 | inactive |

More entries follow.
CG31974 (GeneID 33174) — E2F firefly, rep 1 = 1.34e5; Renilla normaliser, rep 1 = 5526; call = inactive
CG15144 (GeneID 35063) — E2F firefly, rep 1 = 1.04e5; Renilla normaliser, rep 1 = 3826; call = inactive
Patsas (GeneID 34634) — E2F firefly, rep 1 = 90603; Renilla normaliser, rep 1 = 3498; call = inactive
CG5645 (GeneID 39382) — E2F firefly, rep 1 = 78683; Renilla normaliser, rep 1 = 3679; call = inactive
Cdk4 (GeneID 36854) — E2F firefly, rep 1 = 30697; Renilla normaliser, rep 1 = 158; call = inactive
Cpr31A (GeneID 2768918) — E2F firefly, rep 1 = 1.44e5; Renilla normaliser, rep 1 = 5500; call = inactive
Tmx3 (GeneID 39775) — E2F firefly, rep 1 = 73337; Renilla normaliser, rep 1 = 3010; call = inactive
CG32603 (GeneID 318109) — E2F firefly, rep 1 = 1.52e5; Renilla normaliser, rep 1 = 16065; call = inactive
jing (GeneID 35555) #1 — E2F firefly, rep 1 = 1.07e5; Renilla normaliser, rep 1 = 5453; call = inactive
jing (GeneID 35555) #2 — E2F firefly, rep 1 = 1.32e5; Renilla normaliser, rep 1 = 6124; call = inactive
jing (GeneID 35555) #3 — E2F firefly, rep 1 = 79460; Renilla normaliser, rep 1 = 3394; call = inactive
Rap1 (GeneID 38244) — E2F firefly, rep 1 = 74366; Renilla normaliser, rep 1 = 3168; call = inactive
